These results are taken from publication PMC8771551.

Results are given in words; binding and its absence hold for the method and conditions named. In cells and extracts the contact can be indirect. Binding calls can cover weak binding; strength is not graded here. Where a sequence is shown, tags or fusion partners need not be part of it.

The experiment has as its target Flag-KLF5-ΔN (C-terminus of KLF5 with PY motif). The experiment is described as follows: co-IP; CL1-0 cells cotransfected with α-Catulin-GFP and Flag-KLF5 wild-type or truncated mutants; anti-Flag immunoprecipitation, blot with anti-α-Catulin.

B1: GFP-tagged full-length α-Catulin (protein, UniProt Q9UBT7 1-734)
chain: MAASPGPAGVGGAGAVYGSGSSGFALDSGLEIKTRSVEQTLLPLVSQITTLINHKDNTKKSDKTLQAIQRVGQAVNLAVGRFVKVGEAIANENWDLKEEINIACIEAKQAGETIAALTDITNLNHLESDGQITIFTDKTGVIKAARLLLSSVTKVLLLADRVVIKQIITSRNKVLATMERLEKVNSFQEFVQIFSQFGNEMVEFAHLSGDRQNDLKDEKKKAKMAAARAVLEKCTMMLLTASKTCLRHPNCESAHKNKEGVFDRMKVALDKVIEIVTDCKPNGETDISSISIFTGIKEFKMNIEALRENLYFQSKENLSVTLEVILERMEDFTDSAYTSHEHRERILELSTQARMELQQLISVWIQAQSKKTKSIAEELELSILKISHSLNELKKELHSTATQLAADLLKYHADHVVLKALKLTGVEGNLEALAEYACKLSEQKEQLVETCRLLRHISGTEPLEITCIHAEETFQVTGQQIISAAETLTLHPSSKIAKENLDVFCEAWESQISDMSTLLREINDVFEGRRGEKYGYLSLPKPMKNNANLKSLKPDKPDSEEQAKIAKLGLKLGLLTSDADCEIEKWEDQENEIVQYGRNMSSMAYSLYLFTRGEGPLKTSQDLIHQLEVFAAEGLKLTSSVQAFSKQLKDDDKLMLLLEINKLIPLCHQLQTVTKTSLQNKVFLKVDKCITKTRSMMALLVQLLSLCYKLLKKLQMENNGWVSVTNKDTMDSKT
Regarding B1, the binding result is listed as “binds”.
